In PubChem BioAssay AID485314 (National Center for Advancing Translational Sciences (NCATS), 2010):
The campaign covered roughly 340,000 compounds. About 4,500 (1.3%) were called active. Inconclusive results, whose numbers are uncertain, are shown with a selection of clear calls. Calls come from the whole dose curve; as a rule, active = well fitted inhibition curve with a large enough effect; inconclusive = small, poorly fitted or top-dose-only effect, or another doubt; inactive = no such curve, though single readings can be large or run the other way. Potencies beside an inconclusive call are fits to weak or partial responses and may not hold up.

Target: DNA polymerase beta (Homo sapiens) (UniProt P06746)
Assay: qHTS Assay for Inhibitors of DNA Polymerase Beta
Details: Pol beta primer extension/strand displacement, fluorescence kinetic; activity change, negative = inhibition: at 114 µM (top of the series)
Summary of the method: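 Kinetic readout of DNA synthesis with strand displacement by Pol beta. Compound and 10 nM enzyme sit 15 min at room temperature; 50 nM substrate starts the reaction, read immediately and at 10 min.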
% is set by controls: 0 for no effect and ±100 for the full control effect; potency is the fitted concentration of half-maximal effect.

Potency, inactive:
CCC(C)n1c(SCc2ccc(F)cc2Cl)nc2ccsc2c1=O (stereo unspecified), COc1cccc(NC(=O)CSc2nc(C)c(Cc3ccccc3)c(=O)[nH]2)c1, Cc1cccc(NC(=O)Cn2cc(S(=O)(=O)N3CCCC3)c(S(=O)(=O)N3CCCC3)c2)c1C, Cc1cccc(NC(=S)N2CCN(C(=O)c3ccco3)CC2)c1C, O=C(Nc1nnc(S(=O)(=O)N2CCOCC2)s1)c1ccc(Cl)cc1, COCCNC(=O)c1cc(-c2cccnc2)nc2ccc(Br)cc12, Cc1cccc2nc(Cn3c(=O)n(-c4ccc(Cl)cc4)c(=O)c4c5c(sc43)CCC5)cc(=O)n12, Cc1nn(CCCC(=O)NCc2ccccc2Br)c(=O)c2c1sc1ccccc12, CCOC(=O)Cn1c(=O)n(-c2cccc(Cl)c2)c2nc(-c3ccccc3Cl)nc(C(N)=O)c21, C=CCN(CC=C)C(=O)Nc1cc(OC)ccc1OC, NS(=O)(=O)c1ccc(NC(=O)COC(=O)COc2ccc(Cl)cc2)cc1, O=C(CSc1nnc(C2COc3ccccc3O2)o1)Nc1nccs1 (stereo unspecified), Cc1c(C)n(Cc2ccccc2)c2ccc(C(=O)NCC(C)c3ccccc3)cc12 (stereo unspecified), CCCc1nnc(NC(=O)CCC(=O)NC2CCCCC2)s1, Cc1c(NC(=O)C(C)OC(=O)c2cccnc2)c(=O)n(-c2ccccc2)n1C (stereo unspecified), COc1ccc(NC(=O)CCCn2nc(C)c3c(C)n(-c4ccccc4)nc3c2=O)cc1OC, COc1ccc(OC)c(CCNC(=O)c2c(C)oc3ncn(CC(C)C)c(=O)c23)c1, CCc1ccc2oc(-c3ccc(C)c(NC(=O)c4cc([N+](=O)[O-])ccc4N4CCOCC4)c3)nc2c1

Potency, inconclusive:
O=C(NCc1ccc(Cl)cc1)C1CCN(S(=O)(=O)c2ccc(F)cc2)CC1 89.1 µM [inhibitor, single point], Cc1cc(C)nc(SCCC(=O)Nc2ccccc2C)n1 39.8 µM [inhibitor, single point], O=C(NCc1cccnc1)c1cc(Cl)ccc1[N+](=O)[O-] 10 µM [inhibitor, partial curve], CN(CCO)C(=O)C1CCN(c2ncc(C(F)(F)F)cc2Cl)CC1 89.1 µM [inhibitor, single point], CCOC(=O)c1ccc(NNC(C)=O)c([N+](=O)[O-])c1 39.8 µM [inhibitor, single point], Cc1c(C)c2ccc(OCC(=O)c3ccccc3)cc2oc1=O 79.4 µM [inhibitor, single point], COc1ccc2oc(C(=O)OCC(=O)N3C(C)CCCC3C)c(C)c2c1 (stereo unspecified) 14.1 µM [inhibitor, single point], CCc1csc(CCNC(=O)C2CCC(=O)N(CCc3cccc(F)c3)C2)n1 (stereo unspecified) 31.6 µM [inhibitor, single point], COc1ccc(C2=NOC(C(=O)NC(C)C)C2)cc1 (stereo unspecified) 22.4 µM [inhibitor, single point], CCOC(=O)c1c(NC(=O)CSc2cccc[n+]2[O-])sc(C(=O)Nc2ccccc2)c1C 25.1 µM [inhibitor, full curve, poor fit], COc1ccc(C(C(=O)NC2CCCCC2)N(C(=O)c2sc(C)nc2C)c2ccccc2C)cc1 (stereo unspecified) 5.01 µM [inhibitor, full curve, poor fit], O=S(=O)(NCc1ccccc1)c1ccc(S(=O)(=O)N2CCCC2)cc1 89.1 µM [inhibitor, single point], CCc1ccc(NC2=NC(C(=O)c3ccccc3)CC(=O)N2)cc1 (stereo unspecified) 89.1 µM [inhibitor, single point], Cc1sc2nc(SCC(=O)N3CC(C)OC(C)C3)n(C)c(=O)c2c1C (stereo unspecified) 10 µM [inhibitor, full curve], O=C(N1CCOCC1)N1CCCC(c2nc(-c3cccs3)no2)C1 (stereo unspecified) 1.12 µM [inhibitor, full curve, poor fit], Cc1nn(C(C)C(=O)N2CCN(c3ccc(F)cc3)CC2)c(=O)c2c1sc1ccccc12 (stereo unspecified) 25.1 µM [inhibitor, full curve, poor fit], CC(C(=O)OCC(=O)c1ccc(F)cc1)N1C(=O)C2C3C=CC(C3)C2C1=O (stereo unspecified) 39.8 µM [inhibitor, single point], COC(=O)c1sccc1NC(=O)c1c(Cl)cccc1Cl 39.8 µM [inhibitor, single point], CCOc1ccc(S(=O)(=O)N(CC(=O)Nc2ccc(OC)cc2OC)c2ccccc2)cc1 0.282 µM [inhibitor, partial curve], Cc1cccc(Nc2nc(-c3ccccn3)cs2)n1 79.4 µM [inhibitor, single point], CCOC(=O)Nc1ccc2c(c1)nc(CN1CCOCC1)n2C 79.4 µM [inhibitor, single point], COc1ccc(-n2c(C)nc3c(cnn3-c3ccccc3)c2=O)cc1 79.4 µM [inhibitor, partial curve, poor fit], CC(=O)N1c2ccc(S(=O)(=O)N3CCC(C(=O)Nc4cccc(Cl)c4C)CC3)cc2CC1C (stereo unspecified) 44.7 µM [inhibitor, partial curve, poor fit], COC(=O)c1ccc(CSc2nc3c(cnn3-c3ccc(C)c(C)c3)c(=O)[nH]2)o1 63.1 µM [inhibitor, single point], CN1/C(=C/c2cccc[n+]2CCO)Sc2ccccc21 15.8 µM [inhibitor, partial curve], O=C(O)CCc1cc(I)c(Oc2ccc(O)c(I)c2)c(I)c1 89.1 µM [inhibitor, single point], Cc1ccc(NC(=O)CN2CCC(Cc3ccccc3)CC2)cc1S(=O)(=O)N(C)C 0.891 µM [inhibitor, full curve, poor fit], CCn1c(SCC(=O)c2ccc(NS(=O)(=O)c3ccccc3)cc2)nnc1-c1cccs1 79.4 µM [inhibitor, single point], Cc1cc(C)n(CCC(=O)Nc2ccc(Cl)cc2)n1 15.8 µM [inhibitor, full curve], CN(CC1CCOCC1)C(=O)CC1C(=O)NCCN1Cc1ccccc1F (stereo unspecified) 39.8 µM [inhibitor, single point], O=C1/C(=C\c2ccco2)SC(=S)N1Cc1ccccc1 28.2 µM [inhibitor, full curve], COc1ccc(-c2oc3cc(OC)c(O)c(OC)c3c(=O)c2OC)cc1O 79.4 µM [inhibitor, single point], O=C(CSc1nc2c([nH]c3ccccc32)c(=O)n1-c1cccc(Cl)c1)N1CCCC1 6.31 µM [inhibitor, full curve], CCOC(=O)CCSc1nc(-c2ccccc2)cc(C(F)(F)F)n1 28.2 µM [inhibitor, single point], COc1ccc(C(=O)NCC(=O)Nc2ccc(-c3ccccc3)cc2)cc1 39.8 µM [inhibitor, partial curve], CCOC(=O)Cn1c(=O)oc2cc(S(=O)(=O)N3CCN(c4cccc(Cl)c4)CC3)ccc21 89.1 µM [inhibitor, single point], COc1cccc(NC(=O)c2cc3ccccc3cc2OC)c1 7.08 µM [inhibitor, full curve, poor fit], Cc1nnsc1C(=O)NNS(=O)(=O)c1ccccc1 89.1 µM [inhibitor, single point], O=C(O)c1ccc(Cn2cc(/C=C\[N+](=O)[O-])c3ccccc32)o1 89.1 µM [inhibitor, single point]

Potency, active:
Cc1ccc(-n2nnc3c(=O)n(CC(=O)NCc4ccccc4)cnc32)cc1 10 µM, Cc1nc2c(c(=O)n1Cc1ccco1)c1nc3ccccc3nc1n2Cc1ccccc1 20 µM, CCC(=O)Nc1ccc(C(=O)CSc2nnc(-c3ccccc3F)n2C2CC2)cc1 28.2 µM, O=C(CSCCSCC(=O)c1ccco1)c1ccco1 28.2 µM, CC1=Nc2ccccc2/C1=C\c1nc(-c2ccc(F)cc2)oc1O 35.5 µM, O=C(O)c1cc(-c2ccc(/C=C3\NC(=O)N(c4ccccc4)C3=O)o2)ccc1Cl 22.4 µM, CCOC(=O)c1ccc(NC(=O)COc2ccc(-n3cnnn3)cc2)cc1 31.6 µM, N#CC(C#N)=C1C=C2C=C(N3CCCCCC3)CCC2CC1 (stereo unspecified) 39.8 µM, O=C(N/N=C/c1ccc([N+](=O)[O-])o1)C1CC1 17.8 µM, CN1CCc2[nH]c3ccc(C(=O)NN)cc3c2C1 39.8 µM, COc1ccc2[nH]c(=O)c(CN(C3CCCCC3)C(c3nnnn3Cc3ccco3)C(C)C)cc2c1 (stereo unspecified) 35.5 µM, Cc1ccc(NC(=O)CCC(=O)c2ccc(Br)cc2)cc1 89.1 µM, CCCc1ccc(OCc2nc(-c3ccc(NC(=O)c4ccco4)cc3)no2)cc1 35.5 µM

Activity change, negative = inhibition, inconclusive:
O=C(CNC(=O)c1ccc(F)cc1)N/N=C/c1cc(Br)ccc1OC(=O)/C=C/c1ccco1 -53.5% [inhibitor]
